The other results are listed elsewhere or left out. The calls rarely recur for the same compound in another form.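 Kinases were expressed as nanoluciferase fusions in K562 cells and luminescence was read every 4 h between 2 and 18 h as percent of control, DMSO set to 100% and a positive control to 0%. A time point counts as decreased when the signal drops significantly (2 sigma). The hit call is the authors' own, does not follow from the count of time points alone, and its rule is not shown.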
How the values were obtained:
Assay in all cases: kinase-Nluc reporter destabilization hit call (1 = scored as downregulated) (binary); higher = compound decreases kinase abundance
Conditions in all cases: K562; 2-18 h
BRAF_V600E = system: BRAF_V600E
BTK = BTK (UniProt Q06187)
CAMK2A = CAMK2A (UniProt Q9UQM7)
CAMK2G = CAMK2G (UniProt Q13555)
CDK10 = CDK10 (UniProt Q15131)
CDK2 = CDK2 (UniProt P24941)
CDK3 = CDK3 (UniProt Q00526)
CDK4 = CDK4 (UniProt P11802)
CDK5 = CDK5 (UniProt Q00535)
CDK6 = CDK6 (UniProt Q00534)
CDK7 = CDK7 (UniProt P50613)
CDK9 = CDK9 (UniProt P50750)
CHEK2 = CHEK2 (UniProt O96017)
CSF1R = CSF1R (UniProt P07333)
CSK = CSK (UniProt P41240)
CSNK1A1 = CSNK1A1 (UniProt P48729)
CSNK1D = CSNK1D (UniProt P48730)
DDR1 = DDR1 (UniProt Q08345)
DYRK1B = DYRK1B (UniProt Q9Y463)
DYRK2 = DYRK2 (UniProt Q92630)

By UniProt entry, the sequences of proteins in these tests, tags left out. Where a name states a change or a piece, a line headed by the entry shows the natural chain unless it says otherwise.
UniProt Q06187: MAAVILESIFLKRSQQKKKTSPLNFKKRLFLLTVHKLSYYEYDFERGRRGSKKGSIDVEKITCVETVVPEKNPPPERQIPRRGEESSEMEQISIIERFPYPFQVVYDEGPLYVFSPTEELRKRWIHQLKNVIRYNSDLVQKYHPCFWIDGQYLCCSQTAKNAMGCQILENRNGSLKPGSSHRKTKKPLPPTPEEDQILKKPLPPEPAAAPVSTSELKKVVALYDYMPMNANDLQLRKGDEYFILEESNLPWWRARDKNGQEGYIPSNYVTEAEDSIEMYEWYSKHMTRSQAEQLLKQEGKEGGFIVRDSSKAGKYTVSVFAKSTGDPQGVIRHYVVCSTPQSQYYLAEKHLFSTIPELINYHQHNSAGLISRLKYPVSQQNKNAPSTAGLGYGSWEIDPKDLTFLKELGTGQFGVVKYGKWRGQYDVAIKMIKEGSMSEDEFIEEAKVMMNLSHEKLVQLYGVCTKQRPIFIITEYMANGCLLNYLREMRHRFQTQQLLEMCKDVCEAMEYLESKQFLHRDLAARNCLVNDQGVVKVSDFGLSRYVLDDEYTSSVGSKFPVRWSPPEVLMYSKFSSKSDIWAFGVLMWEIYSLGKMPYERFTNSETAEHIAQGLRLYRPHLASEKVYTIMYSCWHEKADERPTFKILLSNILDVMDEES
UniProt Q9UQM7, whole entry: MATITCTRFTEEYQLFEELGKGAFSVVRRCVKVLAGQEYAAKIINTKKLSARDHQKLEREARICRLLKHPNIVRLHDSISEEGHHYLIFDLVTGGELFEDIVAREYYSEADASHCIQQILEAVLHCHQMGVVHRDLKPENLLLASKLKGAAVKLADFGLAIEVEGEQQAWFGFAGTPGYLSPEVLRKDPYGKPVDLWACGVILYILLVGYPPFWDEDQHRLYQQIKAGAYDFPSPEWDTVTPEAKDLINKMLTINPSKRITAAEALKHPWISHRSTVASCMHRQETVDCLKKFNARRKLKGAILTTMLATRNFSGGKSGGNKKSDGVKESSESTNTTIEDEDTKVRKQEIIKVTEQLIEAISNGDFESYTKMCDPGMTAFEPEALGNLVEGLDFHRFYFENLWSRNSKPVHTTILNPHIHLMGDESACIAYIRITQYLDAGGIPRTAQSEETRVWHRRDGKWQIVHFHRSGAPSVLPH
UniProt Q13555: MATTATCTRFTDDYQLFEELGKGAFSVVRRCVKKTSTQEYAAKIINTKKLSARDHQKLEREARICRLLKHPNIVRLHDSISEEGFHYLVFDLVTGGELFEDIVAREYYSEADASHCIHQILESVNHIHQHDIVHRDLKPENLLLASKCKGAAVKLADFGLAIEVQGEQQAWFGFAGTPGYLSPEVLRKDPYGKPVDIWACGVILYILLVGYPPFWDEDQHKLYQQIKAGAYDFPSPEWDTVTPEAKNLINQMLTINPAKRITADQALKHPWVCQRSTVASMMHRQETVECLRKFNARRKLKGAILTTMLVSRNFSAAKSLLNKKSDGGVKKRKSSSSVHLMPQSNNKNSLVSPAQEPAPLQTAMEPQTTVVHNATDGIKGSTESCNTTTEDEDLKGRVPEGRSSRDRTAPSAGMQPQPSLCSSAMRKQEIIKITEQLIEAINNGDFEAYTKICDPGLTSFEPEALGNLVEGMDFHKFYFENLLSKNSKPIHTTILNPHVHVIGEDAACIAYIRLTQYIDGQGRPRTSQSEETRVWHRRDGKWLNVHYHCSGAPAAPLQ
UniProt Q15131: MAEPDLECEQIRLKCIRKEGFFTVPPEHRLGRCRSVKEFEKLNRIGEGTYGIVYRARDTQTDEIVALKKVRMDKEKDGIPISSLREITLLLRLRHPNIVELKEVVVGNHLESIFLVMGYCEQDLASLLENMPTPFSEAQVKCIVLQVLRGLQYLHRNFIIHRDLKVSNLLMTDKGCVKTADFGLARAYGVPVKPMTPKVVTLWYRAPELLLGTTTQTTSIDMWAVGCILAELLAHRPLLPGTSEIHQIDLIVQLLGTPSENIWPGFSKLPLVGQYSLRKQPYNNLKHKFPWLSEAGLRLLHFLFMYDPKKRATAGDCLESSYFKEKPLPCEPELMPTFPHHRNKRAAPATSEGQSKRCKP
UniProt Q00526: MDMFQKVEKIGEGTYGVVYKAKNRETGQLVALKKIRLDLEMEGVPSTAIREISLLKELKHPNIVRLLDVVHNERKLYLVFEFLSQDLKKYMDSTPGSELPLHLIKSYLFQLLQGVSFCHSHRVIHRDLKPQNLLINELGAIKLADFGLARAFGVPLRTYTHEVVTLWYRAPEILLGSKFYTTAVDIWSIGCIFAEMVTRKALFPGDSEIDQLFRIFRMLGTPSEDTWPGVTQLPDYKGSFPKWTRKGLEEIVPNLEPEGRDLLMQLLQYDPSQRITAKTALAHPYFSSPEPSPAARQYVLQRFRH
UniProt P11802: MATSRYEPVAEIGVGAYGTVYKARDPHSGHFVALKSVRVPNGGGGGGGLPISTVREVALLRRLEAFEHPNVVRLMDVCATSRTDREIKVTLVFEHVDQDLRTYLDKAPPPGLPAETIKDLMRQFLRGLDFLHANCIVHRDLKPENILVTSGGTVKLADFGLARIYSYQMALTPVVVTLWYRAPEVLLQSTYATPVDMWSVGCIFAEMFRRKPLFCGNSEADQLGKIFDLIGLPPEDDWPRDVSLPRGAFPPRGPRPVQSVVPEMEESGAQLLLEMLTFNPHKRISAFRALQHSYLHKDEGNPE
UniProt Q00535, whole entry, looked up: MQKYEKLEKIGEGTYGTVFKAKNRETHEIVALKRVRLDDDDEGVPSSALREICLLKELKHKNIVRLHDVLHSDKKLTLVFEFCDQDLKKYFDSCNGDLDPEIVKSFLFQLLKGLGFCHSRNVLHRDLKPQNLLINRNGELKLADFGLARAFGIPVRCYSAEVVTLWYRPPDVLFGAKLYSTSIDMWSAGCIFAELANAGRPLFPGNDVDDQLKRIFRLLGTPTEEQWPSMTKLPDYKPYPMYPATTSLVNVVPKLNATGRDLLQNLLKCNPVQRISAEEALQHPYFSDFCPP
UniProt P50613: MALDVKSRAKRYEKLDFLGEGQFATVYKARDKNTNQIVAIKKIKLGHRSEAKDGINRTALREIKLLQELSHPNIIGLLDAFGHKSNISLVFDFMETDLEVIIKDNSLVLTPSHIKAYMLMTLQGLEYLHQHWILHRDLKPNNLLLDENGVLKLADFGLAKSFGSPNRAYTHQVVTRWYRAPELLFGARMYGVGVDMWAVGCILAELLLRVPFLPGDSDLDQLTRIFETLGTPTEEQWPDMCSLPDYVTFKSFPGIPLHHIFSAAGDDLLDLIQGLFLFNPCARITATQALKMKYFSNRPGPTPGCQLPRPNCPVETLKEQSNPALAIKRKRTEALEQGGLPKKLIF
UniProt P50750, whole entry: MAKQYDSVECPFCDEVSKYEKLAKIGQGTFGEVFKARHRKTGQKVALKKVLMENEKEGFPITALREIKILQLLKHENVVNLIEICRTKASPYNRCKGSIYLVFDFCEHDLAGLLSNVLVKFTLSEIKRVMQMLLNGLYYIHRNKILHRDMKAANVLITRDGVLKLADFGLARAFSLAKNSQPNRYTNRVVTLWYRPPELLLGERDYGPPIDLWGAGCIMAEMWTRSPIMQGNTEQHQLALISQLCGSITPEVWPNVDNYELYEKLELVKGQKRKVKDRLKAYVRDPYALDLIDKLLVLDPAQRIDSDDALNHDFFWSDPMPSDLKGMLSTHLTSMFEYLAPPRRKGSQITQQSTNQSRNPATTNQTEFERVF
UniProt P41240: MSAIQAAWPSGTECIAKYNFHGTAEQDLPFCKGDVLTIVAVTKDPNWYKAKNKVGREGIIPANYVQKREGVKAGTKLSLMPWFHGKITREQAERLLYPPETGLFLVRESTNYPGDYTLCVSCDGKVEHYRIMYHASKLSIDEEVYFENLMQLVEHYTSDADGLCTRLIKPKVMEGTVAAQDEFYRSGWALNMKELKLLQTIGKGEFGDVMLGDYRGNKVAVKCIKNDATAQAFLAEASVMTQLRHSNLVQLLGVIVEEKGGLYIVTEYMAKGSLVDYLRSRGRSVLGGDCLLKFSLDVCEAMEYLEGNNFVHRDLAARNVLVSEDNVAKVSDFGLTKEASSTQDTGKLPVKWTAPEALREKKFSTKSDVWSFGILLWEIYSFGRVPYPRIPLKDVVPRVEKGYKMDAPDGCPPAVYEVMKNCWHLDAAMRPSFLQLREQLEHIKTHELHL
UniProt P48729: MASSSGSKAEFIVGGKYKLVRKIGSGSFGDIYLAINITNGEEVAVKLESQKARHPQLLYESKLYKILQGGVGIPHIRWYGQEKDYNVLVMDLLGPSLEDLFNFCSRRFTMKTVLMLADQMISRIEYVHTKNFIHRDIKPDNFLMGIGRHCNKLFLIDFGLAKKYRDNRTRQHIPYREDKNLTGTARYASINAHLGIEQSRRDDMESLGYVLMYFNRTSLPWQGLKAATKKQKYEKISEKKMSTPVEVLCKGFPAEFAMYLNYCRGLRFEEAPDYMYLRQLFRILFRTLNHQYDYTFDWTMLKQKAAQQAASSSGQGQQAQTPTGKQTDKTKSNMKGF
UniProt P48730: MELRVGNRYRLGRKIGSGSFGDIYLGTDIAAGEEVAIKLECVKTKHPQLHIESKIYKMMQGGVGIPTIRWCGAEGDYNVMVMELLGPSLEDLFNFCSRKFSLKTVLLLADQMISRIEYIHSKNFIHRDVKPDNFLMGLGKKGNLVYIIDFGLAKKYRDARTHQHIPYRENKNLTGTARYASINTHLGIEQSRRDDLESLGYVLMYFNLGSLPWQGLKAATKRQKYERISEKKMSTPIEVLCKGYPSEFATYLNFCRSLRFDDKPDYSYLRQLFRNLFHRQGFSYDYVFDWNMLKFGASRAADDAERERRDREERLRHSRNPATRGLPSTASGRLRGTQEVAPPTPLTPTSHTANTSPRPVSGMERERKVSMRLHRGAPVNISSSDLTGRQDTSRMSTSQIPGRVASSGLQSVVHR
UniProt Q08345: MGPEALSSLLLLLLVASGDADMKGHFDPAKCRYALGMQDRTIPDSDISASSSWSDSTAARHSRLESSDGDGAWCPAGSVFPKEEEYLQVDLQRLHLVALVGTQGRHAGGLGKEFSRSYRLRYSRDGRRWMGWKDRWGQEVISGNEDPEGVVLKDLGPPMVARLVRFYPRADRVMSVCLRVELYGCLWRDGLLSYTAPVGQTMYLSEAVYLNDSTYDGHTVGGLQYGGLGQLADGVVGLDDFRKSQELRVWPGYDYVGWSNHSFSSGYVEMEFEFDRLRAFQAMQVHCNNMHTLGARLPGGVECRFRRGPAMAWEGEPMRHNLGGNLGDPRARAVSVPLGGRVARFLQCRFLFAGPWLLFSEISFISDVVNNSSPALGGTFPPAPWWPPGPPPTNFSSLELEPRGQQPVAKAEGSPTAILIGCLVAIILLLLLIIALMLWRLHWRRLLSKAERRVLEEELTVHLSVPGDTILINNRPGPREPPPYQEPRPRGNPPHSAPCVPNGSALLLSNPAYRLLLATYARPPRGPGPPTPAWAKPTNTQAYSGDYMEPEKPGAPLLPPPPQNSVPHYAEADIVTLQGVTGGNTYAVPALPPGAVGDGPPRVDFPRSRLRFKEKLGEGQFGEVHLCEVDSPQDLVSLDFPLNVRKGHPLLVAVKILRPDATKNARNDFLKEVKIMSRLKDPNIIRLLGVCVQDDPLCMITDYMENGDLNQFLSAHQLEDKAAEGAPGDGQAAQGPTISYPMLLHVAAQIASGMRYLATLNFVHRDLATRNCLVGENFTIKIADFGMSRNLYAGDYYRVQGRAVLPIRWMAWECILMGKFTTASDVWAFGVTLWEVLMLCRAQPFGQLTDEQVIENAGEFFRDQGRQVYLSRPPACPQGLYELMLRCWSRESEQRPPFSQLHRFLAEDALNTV
UniProt Q9Y463, whole entry, looked up: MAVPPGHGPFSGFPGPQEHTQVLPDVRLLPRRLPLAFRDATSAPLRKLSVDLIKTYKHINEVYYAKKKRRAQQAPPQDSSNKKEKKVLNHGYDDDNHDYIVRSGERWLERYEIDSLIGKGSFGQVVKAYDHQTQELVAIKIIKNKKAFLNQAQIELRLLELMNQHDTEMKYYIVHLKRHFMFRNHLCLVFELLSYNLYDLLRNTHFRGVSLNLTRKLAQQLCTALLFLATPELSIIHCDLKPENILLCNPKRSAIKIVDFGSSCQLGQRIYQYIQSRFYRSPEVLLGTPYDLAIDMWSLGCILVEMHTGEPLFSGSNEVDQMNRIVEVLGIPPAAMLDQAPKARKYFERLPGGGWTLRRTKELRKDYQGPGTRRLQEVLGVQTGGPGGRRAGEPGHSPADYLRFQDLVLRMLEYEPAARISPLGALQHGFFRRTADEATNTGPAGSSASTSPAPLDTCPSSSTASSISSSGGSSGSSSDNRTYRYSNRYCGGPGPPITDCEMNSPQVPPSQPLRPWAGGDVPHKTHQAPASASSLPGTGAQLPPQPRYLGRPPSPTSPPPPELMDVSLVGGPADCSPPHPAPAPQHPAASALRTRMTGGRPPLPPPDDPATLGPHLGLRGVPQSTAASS

Measured: kinase-Nluc reporter destabilization hit call

O=c1cc(-c2cccc3c2Sc2ccccc2S3)oc(N2CCOCC2)c1 (10 µM)
inactive: BRAF_V600E 0 | BTK 0 | CAMK2A 0 | CAMK2G 0 | CDK10 = 0 | CDK2 = 0 | CDK3 = 0 | CDK4 = 0 | CDK5 = 0 | CDK6 = 0 | CDK7 = 0 | CDK9 = 0 | CHEK2 = 0 | CSF1R 0 | CSK 0 | CSNK1A1 = 0 | CSNK1D 0 | DDR1 = 0 | DYRK1B 0 | DYRK2 = 0

C[C@H](NC(=O)[C@H]1NCC[C@@H]1O)c1ccc(-c2noc(CCC3CCCC3)n2)cc1 (10 µM)
inactive: BRAF_V600E 0 | BTK 0 | CAMK2A 0 | CAMK2G 0 | CDK10 = 0 | CDK2 = 0 | CDK3 = 0 | CDK4 = 0 | CDK5 = 0 | CDK6 = 0 | CDK7 = 0 | CDK9 = 0 | CHEK2 = 0 | CSF1R 0 | CSK 0 | CSNK1A1 = 0 | CSNK1D 0 | DDR1 = 0 | DYRK1B 0 | DYRK2 = 0

O=C(O)c1cc(=O)c2c(OCC(O)COc3cccc4oc(C(=O)O)cc(=O)c34)cccc2o1 [Cromolyn (sodium)] (10 µM)
inactive: BRAF_V600E 0 | BTK 0 | CAMK2A 0 | CAMK2G 0 | CDK10 = 0 | CDK2 = 0 | CDK3 = 0 | CDK4 = 0 | CDK5 = 0 | CDK6 = 0 | CDK7 = 0 | CDK9 = 0 | CHEK2 = 0 | CSF1R 0 | CSK 0 | CSNK1A1 = 0 | CSNK1D 0 | DDR1 = 0 | DYRK1B 0 | DYRK2 = 0

Oc1ccc(/C=C/c2cc(O)cc(O)c2)cc1 [Resveratrol] (10 µM)
inactive: BRAF_V600E 0 | BTK 0 | CAMK2A 0 | CAMK2G 0 | CDK10 = 0 | CDK2 = 0 | CDK3 = 0 | CDK4 = 0 | CDK5 = 0 | CDK6 = 0 | CDK7 = 0 | CDK9 = 0 | CHEK2 = 0 | CSF1R 0 | CSK 0 | CSNK1A1 = 0 | CSNK1D 0 | DDR1 = 0 | DYRK1B 0 | DYRK2 = 0

CNc1nc(Nc2cn(C(C)(C)C#N)nc2C)ncc1C(F)(F)F (10 µM)
inactive: BRAF_V600E 0 | BTK 0 | CAMK2A 0 | CAMK2G 0 | CDK10 = 0 | CDK2 = 0 | CDK3 = 0 | CDK4 = 0 | CDK5 = 0 | CDK6 = 0 | CDK7 = 0 | CDK9 = 0 | CHEK2 = 0 | CSF1R 0 | CSK 0 | CSNK1A1 = 0 | CSNK1D 0 | DDR1 = 0 | DYRK1B 0 | DYRK2 = 0

O=C1NC(=O)C(c2cnc3ccccn23)=C1c1cn2c3c(cc(F)cc13)CNCC2 [GSK-3 inhibitor 1] (2.5 µM)
inactive: BRAF_V600E 0 | BTK 0 | CAMK2A 0 | CAMK2G 0 | CDK10 = 0 | CDK2 = 0 | CDK3 = 0 | CDK4 = 0 | CDK5 = 0 | CDK6 = 0 | CDK7 = 0 | CDK9 = 0 | CHEK2 = 0 | CSF1R 0 | CSK 0 | CSNK1A1 = 0 | CSNK1D 0 | DDR1 = 0 | DYRK1B 0 | DYRK2 = 0

CC[C@@](C)(Nc1ccnc(-c2c[nH]c3ncccc23)n1)C(=O)NCC(F)(F)F [Decernotinib] (10 µM)
inactive: BRAF_V600E 0 | BTK 0 | CAMK2A 0 | CAMK2G 0 | CDK10 = 0 | CDK2 = 0 | CDK3 = 0 | CDK4 = 0 | CDK5 = 0 | CDK6 = 0 | CDK7 = 0 | CDK9 = 0 | CHEK2 = 0 | CSF1R 0 | CSK 0 | CSNK1A1 = 0 | CSNK1D 0 | DDR1 = 0 | DYRK1B 0 | DYRK2 = 0

CC/C(=N\NC(=O)c1ccnc(NCCCN2CCOCC2)c1)c1ccc(Cl)cc1O (2.5 µM)
inactive: BRAF_V600E 0 | BTK 0 | CAMK2A 0 | CAMK2G 0 | CDK10 = 0 | CDK2 = 0 | CDK3 = 0 | CDK4 = 0 | CDK5 = 0 | CDK6 = 0 | CDK7 = 0 | CDK9 = 0 | CHEK2 = 0 | CSF1R 0 | CSK 0 | CSNK1A1 = 0 | CSNK1D 0 | DDR1 = 0 | DYRK1B 0 | DYRK2 = 0

O=C(N[C@@H](C1CC1)C(F)(F)F)c1cc(-c2cnn3cc(-c4ccc(F)cc4)cnc23)cs1 (10 µM)
inactive: BRAF_V600E 0 | BTK 0 | CAMK2A 0 | CAMK2G 0 | CDK10 = 0 | CDK2 = 0 | CDK3 = 0 | CDK4 = 0 | CDK5 = 0 | CDK6 = 0 | CDK7 = 0 | CDK9 = 0 | CHEK2 = 0 | CSF1R 0 | CSK 0 | CSNK1A1 = 0 | CSNK1D 0 | DDR1 = 0 | DYRK1B 0 | DYRK2 = 0

Nc1nc(N)c2nc(-c3cccc(O)c3)cnc2n1 (10 µM)
inactive: BRAF_V600E 0 | BTK 0 | CAMK2A 0 | CAMK2G 0 | CDK10 = 0 | CDK2 = 0 | CDK3 = 0 | CDK4 = 0 | CDK5 = 0 | CDK6 = 0 | CDK7 = 0 | CDK9 = 0 | CHEK2 = 0 | CSF1R 0 | CSK 0 | CSNK1A1 = 0 | CSNK1D 0 | DDR1 = 0 | DYRK1B 0 | DYRK2 = 0

COc1nn(C)cc1Nc1nccc(-c2c[nH]c3c(NC(=O)[C@@H](C)N4CCN(C)CC4)cccc23)n1 (10 µM)
inactive: BRAF_V600E 0 | BTK 0 | CAMK2A 0 | CAMK2G 0 | CDK10 = 0 | CDK2 = 0 | CDK3 = 0 | CDK4 = 0 | CDK5 = 0 | CDK6 = 0 | CDK7 = 0 | CDK9 = 0 | CHEK2 = 0 | CSF1R 0 | CSK 0 | CSNK1A1 = 0 | CSNK1D 0 | DDR1 = 0 | DYRK1B 0 | DYRK2 = 0

2 successive records out of the list so far, for reference:
O=C(O)c1cc(=O)c2c(OCC(O)COc3cccc4oc(C(=O)O)cc(=O)c34)cccc2o1 [Cromolyn (sodium)] (10 µM)
inactive: BRAF_V600E 0 | BTK 0 | CAMK2A 0 | CAMK2G 0 | CDK10 = 0 | CDK2 = 0 | CDK3 = 0 | CDK4 = 0 | CDK5 = 0 | CDK6 = 0 | CDK7 = 0 | CDK9 = 0 | CHEK2 = 0 | CSF1R 0 | CSK 0 | CSNK1A1 = 0 | CSNK1D 0 | DDR1 = 0 | DYRK1B 0 | DYRK2 = 0

Oc1ccc(/C=C/c2cc(O)cc(O)c2)cc1 [Resveratrol] (10 µM)
inactive: BRAF_V600E 0 | BTK 0 | CAMK2A 0 | CAMK2G 0 | CDK10 = 0 | CDK2 = 0 | CDK3 = 0 | CDK4 = 0 | CDK5 = 0 | CDK6 = 0 | CDK7 = 0 | CDK9 = 0 | CHEK2 = 0 | CSF1R 0 | CSK 0 | CSNK1A1 = 0 | CSNK1D 0 | DDR1 = 0 | DYRK1B 0 | DYRK2 = 0

— the supplement of paper PMC12823440, “Inhibitors supercharge kinase turnover through native proteolytic circuits” (Nature, 2025)
